Results from one PubChem assay

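Plate-reader measure of the Venus reporter marking one vaccinia stage in infected cells (the cell line is not named here); read time unknown. The test concentration is not given here. Percent change in Venus reporter signal; lower (more negative) values mean stronger inhibition of that viral stage.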

Values are in %. How 0% and 100% were set is not given here. Common to all entries: measured here: Venus reporter, other viral stage. This is a side read-out of the assay, for part of the compounds, not drawn at random.

With COc1ccc(S(=O)(=O)Nc2ccc3c(c2)C(=O)N([C@H](C)CO)C[C@H](C)[C@@H](CN(C)S(=O)(=O)c2ccc(Cl)cc2)OCCCC[C@H](C)O3)cc1 the assay gave activity change (Venus) -40.52%.
With C[C@@H]1CCCCO[C@@H](CN(C)CC2CCCCC2)[C@@H](C)CN([C@@H](C)CO)C(=O)c2cc(NC(=O)Cc3ccccc3)ccc2O1 the assay gave activity change (Venus) -44.4%.
With COc1ccc([Si](C)(C)[C@H]2[C@H](CCO)O[C@@]3(C(=O)N(Cc4ccc(N5CCCCC5=O)cc4)c4ccccc43)[C@@H]2C)cc1 the assay gave activity change (Venus) -43.68%.
With COc1ccc(S(=O)(=O)N(C)C[C@@H]2OCCCC[C@H](C)Oc3ccc(NS(=O)(=O)c4ccccc4)cc3C(=O)N([C@@H](C)CO)C[C@@H]2C)cc1 the assay gave activity change (Venus) -37.89%.
With C[C@@H]1CN([C@H](C)CO)S(=O)(=O)c2ccc(C3=CCCC3)cc2O[C@@H]1CN(C)C(=O)Nc1ccc2c(c1)OCO2 the assay gave activity change (Venus) -40.69%.
With C[C@@H]1CN([C@H](C)CO)C(=O)c2cc(C#CCC3CCCC3)cnc2O[C@@H]1CN(C)Cc1ccccn1 the assay gave activity change (Venus) -17.56%.
With CO[C@@H]1CN(C)C(=O)c2ccc(NC(=O)C3CC3)cc2OC[C@H](C)N(Cc2ccc(F)cc2)C[C@H]1C the assay gave activity change (Venus) -32.75%.
With CC(C)C#Cc1ccc2c(c1)O[C@H](CN(C)Cc1ccncc1)[C@@H](C)CN([C@H](C)CO)S2(=O)=O the assay gave activity change (Venus) -40.58%.
With O=C(C[C@@H]1CC[C@H]2[C@@H](COC[C@@H](O)CN2Cc2cccc(Cl)c2)O1)N1CCCCC1 the assay gave activity change (Venus) -25.15%.
With C[C@@H]1CCCCO[C@H](CN(C)C(=O)Nc2ccccc2)[C@@H](C)CN([C@H](C)CO)C(=O)c2cc(NC(=O)Nc3ccccc3)ccc2O1 the assay gave activity change (Venus) -25.75%.
With COc1cccc(NC(=O)N(C)C[C@@H]2Oc3cc(C#Cc4ccc(F)cc4)ccc3S(=O)(=O)N([C@@H](C)CO)C[C@H]2C)c1 the assay gave activity change (Venus) -38.56%.
With COc1ccc(CN(C)C[C@H]2OCCCC[C@@H](C)Oc3ccc(NC(=O)Nc4ccc(OC)cc4)cc3C(=O)N([C@@H](C)CO)C[C@H]2C)cc1 the assay gave activity change (Venus) -62.82%.
With C[C@H]1CN([C@@H](C)CO)S(=O)(=O)c2ccc(C#Cc3ccccc3F)cc2O[C@@H]1CN(C)C(=O)Cc1cccnc1 the assay gave activity change (Venus) -46.98%.
With C[C@H](CO)N1C[C@H](C)[C@@H](CN(C)C(=O)c2ccccc2F)Oc2ncc(C#Cc3ccc(F)cc3)cc2C1=O the assay gave activity change (Venus) -63.44%.
With COc1ccc(C#Cc2ccc([C@@H]3[C@H](CO)N4CCCCN(Cc5ccncc5)C[C@@H]34)cc2)cc1 the assay gave activity change (Venus) -26.63%.
With COc1ccc(C#Cc2cnc3c(c2)C(=O)N([C@H](C)CO)C[C@H](C)[C@H](CN(C)S(=O)(=O)c2cccc(F)c2)O3)cc1OC the assay gave activity change (Venus) -41.43%.
With C[C@H](CO)N1C[C@H](C)[C@@H](CN(C)C(=O)NC2CCCC2)Oc2cc(C#Cc3ccc(F)cc3)ccc2S1(=O)=O the assay gave activity change (Venus) -33.12%.
With C[C@@H]1CN([C@@H](C)CO)C(=O)Cc2cc(NC(=O)NC3CCCCC3)ccc2O[C@@H]1CN(C)Cc1ccc(Cl)c(Cl)c1 the assay gave activity change (Venus) -37.88%.
With O=C(NCc1ccccc1)[C@@]1(Cc2ccccc2)N=C(c2ccc(OCCCO)cc2)O[C@H]1c1ccccc1 the assay gave activity change (Venus) -40.03%.
With OC[C@@H]1[C@H](c2ccc(-c3cccc(F)c3)cc2)[C@@H]2CN(CCC(F)(F)F)CCCCN12 the assay gave activity change (Venus) -42.26%.
With CS(=O)(=O)N1CC(=O)N2[C@H](C1)[C@H](c1ccc(C#Cc3cccc(F)c3)cc1)[C@@H]2CO the assay gave activity change (Venus) -59.31%.
With CCCN(C)C[C@@H]1Oc2cc(C#Cc3ccccc3OC)ccc2S(=O)(=O)N([C@H](C)CO)C[C@@H]1C the assay gave activity change (Venus) -33.76%.
With O=C(C1CCCC1)N1CCCCN2[C@H](CO)[C@H](c3ccc(-c4cccc(F)c4)cc3)[C@H]2C1 the assay gave activity change (Venus) -34.9%.
With Cc1ccccc1-c1ccc(C2[C@@H]3CN(C(=O)c4ccc(F)cc4)C[C@H]2N3)cc1 (some centres not stated) the assay gave activity change (Venus) -76.73%.
With O=S(=O)(c1ccc(F)cc1)N1C[C@H]2[C@@H](c3ccccc31)[C@H](CO)N2Cc1ccc2c(c1)OCO2 the assay gave activity change (Venus) -26.68%.
With CO[C@H]1CN(C)C(=O)c2cc(NS(=O)(=O)c3ccc(Oc4ccccc4)cc3)ccc2OC[C@H](C)NC[C@@H]1C the assay gave activity change (Venus) -41.72%.
With C[C@H](O)C#Cc1ccc([C@H]2[C@H]3CN(C(=O)Nc4ccccc4)CCCCN3[C@H]2CO)cc1 the assay gave activity change (Venus) -35.9%.

3 of the entries, repeated:

{"smiles": "O=C(NCc1ccccc1)[C@@]1(Cc2ccccc2)N=C(c2ccc(OCCCO)cc2)O[C@H]1c1ccccc1", "activity change (Venus) (%)": "-40.03"}
{"smiles": "C[C@H](CO)N1C[C@H](C)[C@@H](CN(C)C(=O)NC2CCCC2)Oc2cc(C#Cc3ccc(F)cc3)ccc2S1(=O)=O", "activity change (Venus) (%)": "-33.12"}
{"smiles": "O=S(=O)(c1ccc(F)cc1)N1C[C@H]2[C@@H](c3ccccc31)[C@H](CO)N2Cc1ccc2c(c1)OCO2", "activity change (Venus) (%)": "-26.68"}

Data taken from PubChem BioAssay AID1053133, deposited by Broad Institute (2014).